Patent publication US20240360226A1 (AstraZeneca / MedImmune, published 2024)

B1: B09-57 IgG (antibody, V domains shown)
VH: QVQLVQSGAEVKKPGASVKVSCKASGYTFTDYYIHWVRQATGQGLEWMGWMNPNSGNTGYAQKFQGRVTMTRDTSISTAYMELSSLRSEDTAVYYCARGQGYTHSWGQGTMVTVSS
VL: DIQMTQSPSTLSASVGDRVTITCRASEGIYHWLAWYQQKPGKAPKLLIYKASSLASGVPSRFSGSGSGTEFTLTISSLQPDDFATYYCQQYSNYPPTFGGGTKLEIK
notes: also called B09-GL; anti-c-Met antibody clone B09-GL
B2: RAA22 IgG (antibody, V domains shown)
VH: QVQLVQSGAEVKKPGSSVKVSCKASGGTFSDNDFSWVRQAPGQGLEWMGAIVAVFRTETYAQKFQDRVKITADISTRTTYMELSSLRSEDTAVYYCARRLMSAISGPGAPLLMWGQGTLVTVSS
VL: QSALTQPRSVSGSPGQSVTISCTGTSSDVGGYNYVSWYQQHPGKAPKLMIYDVSKRPSGVPDRFSGSKSGNTASLTISGLQAEDEADYYCSSYTSSDTLEIFGGGTKLTVL
notes: Bivalent parental IgG; Only the variable domains are tied to the parental IgG; also called anti-EGFR antibody clone RAA22
B3: QD6 IgG (antibody, V domains shown)
VH: B2 VH with F55V
VL: B2 VL with K55E, S91F
notes: Only variable domains are tied to the parental IgG; also called QD06; anti-EGFR antibody clone QD6

The binders below were run against Semaphorin 3a (assay: ELISA, coated antigen (FIG. 3B)).

Binder	binding
B1	no binding (tested: 10 µg/mL)
B2	no binding (tested: 10 µg/mL)
B3	no binding (tested: 10 µg/mL)

The binders below were run against Ron (CD136) (assay: ELISA, coated antigen (FIG. 3B)).

Binder	binding
B1	no binding (tested: 10 µg/mL)
B2	no binding (tested: 10 µg/mL)
B3	no binding (tested: 10 µg/mL)

What follows are binders tested against Semaphorin 3a (assay: ELISA, antigen coated at 1 ug/mL, anti-human Fab-HRP detection, A450).

Binder	binding
B1	no binding (tested: 10 ug/ml)
B2	no binding (tested: 10 ug/ml)
B3	no binding (tested: 10 ug/ml)

Each binder was assayed against Ron (CD136) (assay: ELISA, antigen coated at 1 ug/mL, anti-human Fab-HRP detection, A450 [CD136]).

Binder	binding
B1	no binding (tested: 10 ug/ml)
B2	no binding (tested: 10 ug/ml)
B3	no binding (tested: 10 ug/ml)

Substitutions are numbered along the chain they refer to. Results are given in words; binding and its absence hold for the method and conditions named.
